The nature of data set [1]: Hair deposition evaluation (ninhydrin, spectroscopic measurement). More on the design: species or system human. The settings on record: hair soaked one hour in solution, rinsed with distilled water; average of hair from 10 individuals (five male, five female). The text has this: Human hair (about 10 cm long) was obtained from 10 individuals (five male and five female) from the barbershops. It was washed with water and air dried. Portions of these hair samples were soaked for one hour in (1) distilled water, (2) in a solution obtained from Example 1, and (3) in a solution obtained from Example 2.
These hair swatches were then removed and rinsed with distilled water. These hair swatches were then immersed in a 1% solution of sodium hydroxide. The hair swatches were then removed, and the sodium hydroxide solution was first heated at 70 to 80 C. for 1 hour to deacetylate N-acetyl-cysteine, then neutralized with hydrochloric acid to pH 5.5 and reacted with ninhydrin reagent solution. The blue color was obtained in samples from (2) and (3) above. […] The deposition of N-acetyl-cysteine from sample (3) was at least 10%.

Data set [2] can be described thus: Hair conditioning / antioxidant benefit of ion-pair derivatives. Particulars: ion-pair formed from stearalkonium chloride. The text has this:
Most hair and nail beneficial sulfur compounds mentioned above, such as cysteine, cystine, N-acetyl-cysteine, biotin, glutathione, and such, are water soluble. These ingredients are not easily deposited in any appreciable or beneficial amounts from rinse-off compositions such as shampoo or conditioner. The combination of such water soluble ingredients with another hair or nail beneficial composition that is known to be deposited on hair and nails (by the attractive forces of cationic and anionic electrical charges) in significant amounts from aforementioned rinse-off products has provided a new method for the deposition of such water soluble ingredients in the present invention. This is both surprising and unexpected because such combination of cationic and anionic compositions usually renders both of such combining compositions ineffective due to the self-neutralization of their positive and negative charges.

The results in this text go back to patent US20040241114A1, “Hair Care and Nail Care Compositions Based on Ion-Pair Delivery System for Gender and Ethnic Selective Applications” (priority 2003, published 2004).

For `CC(=O)N[C@@H](CS)C(=O)[O-].[Na+]` [sample (2), Sodium N-Acetyl-Cysteinate], the “N-acetyl-cysteine deposited on hair” value in data set [1] is “about 1%”.

Regarding `CC(=O)NC(CS)C(=O)[O-].C[N+](C)(C)CCCNC(=O)C=Cc1ccccc1` [sample (3), Cinnamidopropyltrimonium N-Acetyl-Cysteinate], in data set [1], the “N-acetyl-cysteine deposited on hair” value is “at least 10%”.

Turning to stearalkonium cocoate, the hair conditioning benefit result in data set [2] was “does not have any hair conditioning benefits at all”.
